Values from PubChem BioAssay AID743456 (Peter MacCallum Cancer Centre, 2014).
Purpose: 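Identify miRNAs tied to vorinostat resistance or sensitivity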 (primary screen). System: human HCT116-VR colon cancer cells, a vorinostat-resistant HCT116 line. Reagent: miRNA mimic. Time to read-out: about 3 days from transfection to readout; drug present for the last 24 h. Conditions: vorinostat at 2.5 µM final for 24 h. Measurement: 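Cell viability from CellTiter-Fluor signal and caspase activity from luminescence after 24 h vorinostat at 2.5 µM, given as robust z-scores and as ratios to mock-transfected wells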. Direction: viability robust z-score: higher = more viable cells; caspase robust z-score: higher = more caspase activity, more apoptosis. Call rule: 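a mimic counts as active if it lands in a lowered-viability class or a caspase-activation class; wells with too few cells without drug are left out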.
This is a random part of 878 reagents tested. Of all reagents, 27 (3.1%) got an active call. 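27 mimics are marked active, unlike an earlier stated count of 24; the viability threshold is described inconsistently.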 Unmarked entries are inactive. Further read-outs or replicates are left out here. Not given: the amount of reagent.

hsa-miR-196b*: viability robust z-score = 0.16; caspase robust z-score = 0.8; viability hit class = no change; caspase hit class = no change
hsa-miR-26a: viability robust z-score = 0.82; caspase robust z-score = -0.74; viability hit class = no change; caspase hit class = no change
hsa-miR-768-3p: viability robust z-score = 0.28; caspase robust z-score = -0.39; viability hit class = no change; caspase hit class = no change
hsa-miR-1225-5p: viability robust z-score = 0.66; caspase robust z-score = -0.28; viability hit class = no change; caspase hit class = no change
hsa-miR-381: viability robust z-score = 0.72; caspase robust z-score = -0.68; viability hit class = no change; caspase hit class = no change
hsa-miR-936: viability robust z-score = -0.29; caspase robust z-score = 0.44; viability hit class = no change; caspase hit class = no change
hsa-miR-331-3p: viability robust z-score = -0.42; caspase robust z-score = -1.11; viability hit class = no change; caspase hit class = no change
hsa-miR-617: viability robust z-score = -1.11; caspase robust z-score = 0.45; viability hit class = no change; caspase hit class = no change
hsa-miR-141: viability robust z-score = 0.55; caspase robust z-score = -0.82; viability hit class = no change; caspase hit class = no change
hsa-miR-30a: viability robust z-score = 1.16; caspase robust z-score = -0.15; viability hit class = no change; caspase hit class = no change
hsa-miR-133a: viability robust z-score = -0.02; caspase robust z-score = 1.68; viability hit class = no change; caspase hit class = no change
hsa-miR-495: viability robust z-score = 0.56; caspase robust z-score = -0.3; viability hit class = no change; caspase hit class = no change
hsa-miR-658: viability robust z-score = 0.82; caspase robust z-score = -0.14; viability hit class = no change; caspase hit class = no change
hsa-miR-198: viability robust z-score = 0.74; caspase robust z-score = -0.5; viability hit class = no change; caspase hit class = no change
hsa-miR-92a-2*: viability robust z-score = -1.58; caspase robust z-score = 3.93; viability hit class = no change; caspase hit class = no change
hsa-miR-1184: viability robust z-score = 0.62; caspase robust z-score = -0.02; viability hit class = no change; caspase hit class = no change
hsa-miR-335*: viability robust z-score = -0.43; caspase robust z-score = -0.3; viability hit class = no change; caspase hit class = no change
hsa-miR-515-3p: viability robust z-score = 0.09; caspase robust z-score = 2.29; viability hit class = no change; caspase hit class = no change

2 of these entries, reformatted.
{"microRNA":"hsa-miR-133a","viability robust z-score":-0.02,"caspase robust z-score":1.68,"viability hit class":"no change","caspase hit class":"no change"}
{"microRNA":"hsa-miR-495","viability robust z-score":0.56,"caspase robust z-score":-0.3,"viability hit class":"no change","caspase hit class":"no change"}
